Results taken from the supplement of paper PMC11637464.
Counter-ions that a name gives are not always drawn. The list shows a part of the results. Single values are uncertain, as repeats are few or missing.

Tested on: primary mouse Muller glia with Ascl1 overexpression
Assay: Neuronal cell count fold change vs Ascl1-only control (log2 fold change); higher = more neurogenesis
Description: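 Primary P11 mouse Muller glia carrying dox-inducible Ascl1 were treated with Tocriscreen Stem Cell Library compounds at 0.1, 1 or 10 uM together with doxycycline for 5 days, then profiled by sci-Plex hashing and sci-RNA-seq2. Cells were annotated by marker genes and cell-type counts per well were size-factor adjusted. Read-outs are the log2 fold change of Neuronal (NeuPre + bipolar) and ProL cell counts versus the Ascl1-only control wells of the same collection day, plus the raw number of recovered cells per well. There is one well per dose, and wells with fewer than 20 cells were discarded.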

| Structure (SMILES) | Neuronal cell count fold change (0.1 µM) | Neuronal cell count fold change (1 µM) | Neuronal cell count fold change (10 µM) |
| --- | --- | --- | --- |
| NC(=O)c1cccnc1 [Nicotinamide] (collection day: 2) | 0.3 | -0.7 | 0.3 |
| CC(C)(C)c1ccc(S(=O)(=O)NCc2ccc(C(=O)Nc3cccnc3)cc2)cc1 (collection day: 2) | -0.7 | -0.531 |  |
| C=CCNc1ncnc2ccc(Br)cc12 (collection day: 2) | -0.531 | 0.3 | -0.893 |
| O=c1cc(N2CCOCC2)oc2c(-c3ccccc3)cccc12 (collection day: 1) | -0.943 | -0.322 | -1.84 |
| CCN(CC)S(=O)(=O)Nc1cccc(-c2ccc3c(NC(=O)C4CC4)n[nH]c3c2)c1 (collection day: 2) | -0.531 | 0.107 | 0.107 |
| COc1cc2nc(N3CCCN(C)CC3)nc(NC3CCN(Cc4ccccc4)CC3)c2cc1OC (collection day: 2) | 0 | 0.107 |  |
| OCCNC1CCCc2c1[nH]c1ccc(-c3ccccc3)cc21 (stereo not given) (collection day: 2) | -0.115 | 0.206 |  |
| CCN(CC)CCCCNc1ncc2cc(-c3cc(OC)cc(OC)c3)c(NC(=O)NC(C)(C)C)nc2n1 (collection day: 1) | -0.474 | -0.474 |  |
| C[C@@H](N)[C@H]1CC[C@H](C(=O)Nc2ccncc2)CC1 (collection day: 1) | -0.644 |  |  |
| Cc1ccccc1NC(=O)Nc1ccc(CC(=O)N(C)[C@@H](CC(C)C)C(=O)NCC[C@H](NC(=O)[C@@H]2CCCN2S(=O)(=O)c2cc(Cl)cc(Cl)c2)C(=O)O)cc1 (collection day: 2) | 0.107 | 0.206 | 0.206 |
| CCc1ccc(CCOc2ccc(CC3SC(=O)NC3=O)cc2)nc1 (stereo not given) [Pioglitazone hydrochloride] (collection day: 2) | 0 | 0 | -2.7 |
| O=c1n(CCCN2CCN(c3cccc(Cl)c3)CC2)nc2ccccn12 [Trazodone hydrochloride] (collection day: 2) | 0.107 | 0 | 0.206 |
| CN(C)c1ccccc1CN1CCCN(Cc2ccccc2N(C)C)C1c1ccncc1 (collection day: 1) | -0.396 |  | 0.164 |
| COc1cccc(-c2cc(=O)c3ccccc3o2)c1N (collection day: 1) | -0.737 | -0.322 | -0.12 |
| O=C1Cc2c([nH]c3ccc(Br)cc23)-c2ccccc2N1 [Kenpaullone] (collection day: 1) | -0.0589 | -0.184 |  |
| CC(=O)N(C)c1cccc(-c2ccc3nnc(C)n3n2)c1 (collection day: 2) | -0.7 | 0 | -0.241 |

An excerpt of these results, with bars between the fields:
Structure (SMILES) | Neuronal cell count fold change (0.1 µM) | Neuronal cell count fold change (1 µM) | Neuronal cell count fold change (10 µM)
OCCNC1CCCc2c1[nH]c1ccc(-c3ccccc3)cc21 (stereo not given) (collection day: 2) | -0.115 | 0.206 | 
CCN(CC)CCCCNc1ncc2cc(-c3cc(OC)cc(OC)c3)c(NC(=O)NC(C)(C)C)nc2n1 (collection day: 1) | -0.474 | -0.474 | 
